Earlier results, collected in patent publication US7179808B2 (Janssen Pharmaceutica N.V., priority 2002, dated 2007).

Tested on: mice with potassium peroxochromate arthritis
Details: cited from earlier work

**Q.** With CN[C@@H]1C[C@H]2O[C@@](C)([C@@H]1OC)n1c3ccccc3c3c4c(c5c6ccccc6n2c5c31)C(=O)NC4 [staurosporine] as the molecule, how does the “inhibition of the arthritis” value (100 nmol) read?
**A.** Its value is 85%.

**Q.** And the inhibited the arthritis (daily doses of 30 nmol/kg)?
**A.** Its inhibited the arthritis is 50%.
